Experimental data taken from PMC8462815.
No constants are given. Whether binding was seen depends on the method and setting. Binding calls can cover weak binding; strength is not graded here. Where a sequence is shown, tags or fusion partners need not be part of it. For some of these results: In cells and extracts the contact can be indirect.

Protein sequences, listed by entry. Tags and fused reporters are not part of them. Lines headed by an entry give the natural chain unless they say otherwise; changes in a name come on top.
UniProt Q9FFC9: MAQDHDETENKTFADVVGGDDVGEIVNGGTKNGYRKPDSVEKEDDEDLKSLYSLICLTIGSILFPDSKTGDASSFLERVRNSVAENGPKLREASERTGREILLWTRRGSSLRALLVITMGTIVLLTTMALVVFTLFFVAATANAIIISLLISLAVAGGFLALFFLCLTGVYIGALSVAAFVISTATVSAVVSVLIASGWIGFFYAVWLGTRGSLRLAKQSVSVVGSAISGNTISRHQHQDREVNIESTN

Experiments:
[1] = target: cCFP-LDIP (Arabidopsis LDIP fused to the C-terminal half of CFP) (Arabidopsis thaliana) (UniProt Q9FFC9); assay: split reporter; BiFC (cCFP/nVenus) in N. benthamiana leaf epidermal cells; Cherry-Perox as transformation marker; BiFC puncta per Cherry-Perox puncta counted in 30 leaf areas from three infiltrations
[2] = target: full-length Arabidopsis LDIP, yeast two-hybrid fusion (pGBK/LDIP) (Arabidopsis thaliana); assay: two-hybrid; Gal4 yeast two-hybrid in Y2HGold; serial dilutions on DDO (-Trp -Leu) and QDO (-Trp -Leu -His -Ade) plates; growth on QDO read as interaction

Row | Binder | binding [1] | binding [2]
1 | nVenus-SEIPIN2 (N-terminal half of Venus fused to Arabidopsis SEIPIN2) (protein, UniProt F4I340 1-526) MDSESESESNPSTTDEFDRFLDAPDEFYYDCLPIRSNSHQPSSLLRRRKSAHRRDLISSDIETEPSSSSDGFDVGEKSSYVEKNAELRGDIDTSDVIESTKDSIDLSSEKENDLDVISSSGNDMDVIDSGRNRVDPFQEESTVTTVSSDDQGDDDYAGSVPQFREPPNSTEWSLLGFLVGLVIKAIEFQVSFMTSLLTFPPWLLRNCFLFFFDPFSTIRFGRRFLMARVAGISDMIFGYMNPFRLKDTKQMLSIVCKFGWGMFWAVYVGIVLFGLLVSSLMIGGYVINRIADKPFEVKETLNFDYTKNSPEAYVPISSCAGVECEGSCKESNEMSKIRGLRVIPRDQKLDIILSMTLPESAYNKNLGMFQVRVDFLSVDGQTIASIRRPCMLRFRSEPIRLVQTFFKVVPLVTGYVSEIQTLSLKLKGFVEKDIPTACLKIIIEQRAEFRPGAGIPELYDASLSVESGLPFFRKIIWKWRKTLFVWISMSLFITELLFTLVCCRPLIIPRTQPRDRSPSNPTGVWR | binds | –
2 | full-length Arabidopsis SEIPIN2, yeast two-hybrid fusion (pGAD/SEIPIN2) (protein, UniProt F4I340 1-526) MDSESESESNPSTTDEFDRFLDAPDEFYYDCLPIRSNSHQPSSLLRRRKSAHRRDLISSDIETEPSSSSDGFDVGEKSSYVEKNAELRGDIDTSDVIESTKDSIDLSSEKENDLDVISSSGNDMDVIDSGRNRVDPFQEESTVTTVSSDDQGDDDYAGSVPQFREPPNSTEWSLLGFLVGLVIKAIEFQVSFMTSLLTFPPWLLRNCFLFFFDPFSTIRFGRRFLMARVAGISDMIFGYMNPFRLKDTKQMLSIVCKFGWGMFWAVYVGIVLFGLLVSSLMIGGYVINRIADKPFEVKETLNFDYTKNSPEAYVPISSCAGVECEGSCKESNEMSKIRGLRVIPRDQKLDIILSMTLPESAYNKNLGMFQVRVDFLSVDGQTIASIRRPCMLRFRSEPIRLVQTFFKVVPLVTGYVSEIQTLSLKLKGFVEKDIPTACLKIIIEQRAEFRPGAGIPELYDASLSVESGLPFFRKIIWKWRKTLFVWISMSLFITELLFTLVCCRPLIIPRTQPRDRSPSNPTGVWR | – | binds
3 | FRSEPIRLVQTFFKVVPLVTGYV (domain or fragment, UniProt F4I340 394-416) [GFP-SEIPIN2 HH (SEIPIN2 HH sequence appended to GFP), yeast two-hybrid fusion (pGAD/GFP-SEIPIN2 HH)] | – | binds
4 | SEIPIN2ΔHH, yeast two-hybrid fusion (pGAD/SEIPIN2ΔHH) (protein, UniProt F4I340) MDSESESESNPSTTDEFDRFLDAPDEFYYDCLPIRSNSHQPSSLLRRRKSAHRRDLISSDIETEPSSSSDGFDVGEKSSYVEKNAELRGDIDTSDVIESTKDSIDLSSEKENDLDVISSSGNDMDVIDSGRNRVDPFQEESTVTTVSSDDQGDDDYAGSVPQFREPPNSTEWSLLGFLVGLVIKAIEFQVSFMTSLLTFPPWLLRNCFLFFFDPFSTIRFGRRFLMARVAGISDMIFGYMNPFRLKDTKQMLSIVCKFGWGMFWAVYVGIVLFGLLVSSLMIGGYVINRIADKPFEVKETLNFDYTKNSPEAYVPISSCAGVECEGSCKESNEMSKIRGLRVIPRDQKLDIILSMTLPESAYNKNLGMFQVRVDFLSVDGQTIASIRRPCMLRFSEIQTLSLKLKGFVEKDIPTACLKIIIEQRAEFRPGAGIPELYDASLSVESGLPFFRKIIWKWRKTLFVWISMSLFITELLFTLVCCRPLIIPRTQPRDRSPSNPTGVWR | – | no binding
